Values of other authors in patent publication US10398592B2, “Diagnostic methods and apparatus” (ForSight Vision4, Inc., priority 2011, dated 2019).
For at least one compound, name, drawing or mass did not settle the structure.

Details: from Stay, M S et al., Pharm Res 2003; cited from earlier work

In the case of `O=C1OC2(c3ccc(O)cc3Oc3cc(O)ccc32)c2ccccc21` [fluorescein], the “D (diffusion coefficient)” value is given as 4.8 to 6 e-6 cm^2/s.
